Experimental data published in paper PMC9655037, “Alternation of Organ-Specific Exposure in LPS-Induced Pneumonia Mice after the Inhalation of Tetrandrine Is Governed by Metabolizing Enzyme Suppression and Lysosomal Trapping” (International Journal of Molecular Sciences, 2022).

System: A549, HepG2, RAW264.7, and C8-D1A cells
Test: Cellular uptake of TET with or without the lysosomal inhibitor monensin
Type: cell-based
Conditions: 25 µM monensin

SMILES: COc1ccc2cc1Oc1ccc(cc1)C[C@H]1c3cc(c(OC)cc3CCN1C)Oc1c(OC)c(OC)cc3c1[C@H](C2)N(C)CC3 [TET, Tetrandrine]
- inhibition of uptake in cells with monensin present in the LPS-treated incubation (2 μM TET): ~ 40%
- effect of monensin on intracellular uptake of TET (four cell lines): significantly inhibited by monensin
